Measured values taken from PubChem BioAssay AID1347076 (National Center for Advancing Translational Sciences (NCATS), 2019).
Hit rate of the full screen: of about 400,000 compounds, about 13,000 (3.2%) were called active. Inconclusive results, whose numbers are uncertain, are shown with a selection of clear calls. Calls come from the whole dose curve; as a rule, active = well fitted cell-killing curve with a large enough effect; inconclusive = small, poorly fitted or top-dose-only effect, or effect the other way; inactive = flat fitted curve, though single readings scatter. Potencies of inconclusive entries are doubtful fits and often do not repeat.

Assay: qHTS assay for MDR1-selective chemotherapeutics: Primary screen using the drug-selected MDR subline cells KB-V1; note: nearly all actives have a fitted effect of over 60% in size
Conditions: KB-V1 MDR cells viability, CellTiter-Glo, 72 h; series mostly up to 46.1 µM
Outline: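 Compound-treated KB-V1 multidrug-resistant cells, 72 h, 37 degrees C; viability by CellTiter-Glo. Fitted qHTS curves give the values.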
Potency is the fitted concentration of half-maximal effect.

SMILES	Potency
COc1ccccc1NC(=O)CCSc1nnnn1C	inconclusive: 3.26 µM [rising, partial curve]
CN(C)S(=O)(=O)N(CC(=O)Nc1ccccc1)c1ccccc1	inconclusive: 18.4 µM [cytotoxic, single point]
COc1ccc(Oc2coc3cc(OC(=O)N4CCOCC4)ccc3c2=O)cc1	inactive
O=C(OCCCN=C1NS(=O)(=O)c2ccccc21)c1ccccc1	inactive
COC(=O)[C@]1(C)N[C@H](CN(C)C(=O)Nc2ccc(Cl)cc2)[C@@H]2C(=O)N(Cc3ccccc3)C(=O)[C@@H]21	inactive
O=C(Nc1ccc(S(=O)(=O)NCc2ccco2)cc1)C1CCCCC1	inconclusive: 16.4 µM [cytotoxic, single point]
CCN1C(=O)[C@H]2[C@@H](c3ccc(C)cc3)N3C(=O)N(c4cccc(Cl)c4)C(=O)[C@@]3(Cc3ccccc3)[C@H]2C1=O	inconclusive: 23.1 µM [rising, single point]
COc1ccc(CNc2nc3c(c(=O)[nH]c(=O)n3C)n2Cc2ccccc2)cc1	inconclusive: 29.1 µM [rising, single point]
CC(C)NC(=O)CN1C(=O)c2cccnc2Sc2ccccc21	inactive
C/C(=C\c1ccccc1)CN1CCN(c2ccccc2F)CC1	inconclusive: 29.1 µM [cytotoxic, single point]
COc1ccc(CNc2ncnc3c2[nH]c2cc(OC)c(OC)cc23)cc1	inactive
Cc1ccc(-c2nc(-c3cc4cccc(OCc5ccccc5F)c4oc3=O)no2)cc1	inconclusive: 29.1 µM [rising, single point]
Cc1cn(CC(C)C)c(=O)n(-c2ccccc2)c1=O	inconclusive: 0.651 µM [rising, partial curve, poor fit]
COc1ccc(C(=O)CC(SCC(NC(C)=O)C(=O)O)c2ccc(Cl)cc2)cc1OC (centres undefined)	active: 13 µM
CCCN(CC1CCCO1)C(=O)c1cc(COc2ccc(F)cc2F)on1 (centres undefined)	inactive
CCOC(=O)c1ccc(NC(=O)NCc2ccncc2)cc1	inconclusive: 29.1 µM [cytotoxic, single point]
CNC(=S)NNC(=O)Cc1ccc(OC)c(OC)c1	inactive
O=C(Nc1ccc(F)cc1)c1cc(-c2ccncc2)nc2c(Cl)cccc12	inconclusive: 7.31 µM [cytotoxic, partial curve]
COc1ccc(C(C)(NC(C)=O)c2nc(-c3ccc(F)cc3OC)cs2)cc1 (centres undefined)	inactive
Cc1ccc(S(=O)(=O)/N=C2/NC(=O)/C(=C/c3ccccc3)S2)cc1	inactive
CCOC(=O)C1=CN(Cc2cccc(F)c2)S(=O)(=O)N(C)C1c1ccc2ccccc2c1 (centres undefined)	inactive
Cc1ccc(NC(=O)CSCC(=O)Nc2cccc(S(=O)(=O)N3CCCCCC3)c2)cc1	inactive
COc1ccc(NC(=O)CN(C)C(=O)CCc2nc3cc(S(=O)(=O)N4CCOCC4)ccc3n2C)cc1	inconclusive: 29.1 µM [rising, single point]

SMILES	Potency
CCOc1cc(N2CCOCC2)c(OCC)cc1NC(=O)CSc1ccccc1C(=O)O	inactive
O=C(COC(=O)c1c(Cl)cccc1Cl)Nc1ccccc1Br	active: 18.4 µM
c1ccc2c(c1)[nH]c1c(N3CCN(C4CCCCC4)CC3)ncnc12	inconclusive: 5.17 µM [cytotoxic, full curve]
CCCS(=O)(=O)c1cscc1NC(=O)c1c(-c2c(F)cccc2Cl)noc1C	inconclusive: 29.1 µM [cytotoxic, single point]
Cc1cc(C)cc(NC(=O)CSc2nnc(CNC(=O)c3ccco3)n2C)c1	inconclusive: 29.1 µM [cytotoxic, single point]
Cc1cc(-c2ccccc2)nc(Nc2nc3c(C)cccc3c(=O)[nH]2)n1	inactive
COc1ccc(C(CNC(=O)C(C)(C)Oc2ccc(Cl)cc2)N2CCOCC2)cc1 (centres undefined)	inconclusive: 4.11 µM [cytotoxic, partial curve]
CCOC(=O)c1ccc(COC(=O)c2ccc3c(c2)-c2ccccc2C3=O)cc1	active: 14.6 µM
Cc1cc(C)nc(Nc2nc(C(N)CCc3ccccc3)cs2)n1 (centres undefined)	inconclusive: 0.461 µM [cytotoxic, full curve, poor fit]
COc1ccc(C(=O)NC(=S)Nc2ccccc2N2CCCCC2)cc1[N+](=O)[O-]	inconclusive: 20.6 µM [cytotoxic, single point]
COc1cc(Cn2c(-c3nonc3N)nc3ccccc32)ccc1C	active: 5.17 µM
O=C(Oc1cccc([N+](=O)[O-])c1)C1CCN(C(=O)c2ccc(F)cc2)CC1	inactive
Cc1c(NC(=O)c2sc3ccccc3c2Cl)cccc1-c1nc2ccccc2o1	inconclusive: 9.2 µM [rising, partial curve, poor fit]
Cc1cccc(C(=O)NC(=S)Nc2cccc3nc(C)ccc23)c1	inconclusive: 18.4 µM [cytotoxic, partial curve, poor fit]
Cc1ccccc1CSc1nnc2ccc(-c3ccncc3)nn12	inconclusive: 14.6 µM [cytotoxic, partial curve, poor fit]
O=C(NCC1CCCN1S(=O)(=O)c1cccs1)c1cccc([N+](=O)[O-])c1 (centres undefined)	inconclusive: 14.6 µM [cytotoxic, partial curve]
Cc1ccc(C(=O)O/N=C(\N)c2ccc(C(F)(F)F)cn2)cc1	inconclusive: 23.1 µM [rising, single point]
CCOC(=O)CN(c1ccccn1)S(=O)(=O)c1ccccc1	inactive
CC[C@]12C(=O)N(C)C[C@H]([C@@H]3C(=O)N(C)C(=O)[C@@H]31)N2C(=O)c1ccc(C(C)(C)C)cc1	inactive
CCOC(=O)[C@]12CCC=C1N(Cc1cccc3ccccc13)C(=O)[C@H](CC(=O)NCC1CCCCC1)C2	inconclusive: 6.51 µM [cytotoxic, partial curve]
N#CCCn1cc(/C=N/NC(=O)c2ccncc2)c(-c2ccccc2)n1	inconclusive: 8.2 µM [rising, partial curve, poor fit]
CN(O)C(=S)c1ccccc1	inconclusive: 0.0046 µM [cytotoxic, full curve, poor fit]
COc1ccccc1N(CC(=O)NC(C)(C)C)C(=O)Cn1nnc(-c2ccc(C)o2)n1	active: 2.31 µM

Three entries already listed, ordered by number of heavy atoms, smallest number first.
SMILES	Potency
CCOC(=O)CN(c1ccccn1)S(=O)(=O)c1ccccc1	inactive
O=C(NCC1CCCN1S(=O)(=O)c1cccs1)c1cccc([N+](=O)[O-])c1 (centres undefined)	inconclusive: 14.6 µM [cytotoxic, partial curve]
CCOC(=O)c1ccc(COC(=O)c2ccc3c(c2)-c2ccccc2C3=O)cc1	active: 14.6 µM

Later entries.

SMILES	Potency
O=C(NCc1ccco1)c1cc(S(=O)(=O)N2CCCC2)ccc1Cl	inconclusive: 18.4 µM [cytotoxic, single point]
Cc1cc(=O)[nH]c(SCCc2ccccc2)n1	active: 11.6 µM
COc1ccc(CSCC(=O)NCCC(C)C)cc1	inactive
CCC1=C[C@@H]2CN(C1)Cc1c([nH]c3ccccc13)[C@@](C(=O)OC)(c1cc3c(cc1OC)N(C)[C@H]1[C@@](O)(C(=O)OC)[C@H](OC(C)=O)[C@]4(CC)C=CCN5CC[C@]31[C@@H]54)C2	inconclusive: 18.4 µM [cytotoxic, single point]
COc1cc(/C=C2/C(=N)N3N=C(CC(=O)N4CCOCC4)SC3=NC2=O)ccc1OC(C)c1ccccc1 (centres undefined)	inconclusive: 29.1 µM [rising, single point]
c1ccc(-c2nnc(N3CCCC3)nc2-c2ccccc2)cc1	inactive
O=S(=O)(NCC1CCCO1)c1ccc(S(=O)(=O)N(Cc2ccccc2F)C2CCCCC2)cc1 (centres undefined)	inconclusive: 13 µM [cytotoxic, partial curve, poor fit]
Cc1cc(S(=O)(=O)N2CCOCC2)ccc1NC(=O)c1ccc(F)cc1	inconclusive: 23.1 µM [cytotoxic, partial curve]
Cc1ccn2c(NC3CCCC3)c(-c3cccs3)nc2c1	inconclusive: 29.1 µM [cytotoxic, single point]
COC(=O)[C@H](CCSC)NC(=O)Cn1ccc(NC(=O)OCc2ccccc2)nc1=O	inconclusive: 20.6 µM [rising, single point]
COc1ccc(S(=O)(=O)N(C)C)cc1NCC(=O)Nc1ccc(Br)c(C)c1	active: 7.31 µM
Cc1cc(OCC(=O)N(C)c2ccccc2)cc2c1C(=O)CC(C)(C)O2	inconclusive: 6.51 µM [cytotoxic, partial curve, poor fit]
Cn1c(=O)c([N+](=O)[O-])c(NCCCn2ccnc2)c2ccccc21	inactive
O=c1oc(-c2ccccc2[N+](=O)[O-])nc2ccccc12	inconclusive: 9.2 µM [rising, partial curve, poor fit]
CC1CCCCN1S(=O)(=O)c1ccc(C(=O)Nc2nnc(-c3ccccc3Cl)o2)cc1 (centres undefined)	active: 16.4 µM
Cc1cccc(C)c1N1CCN(C(c2ccnc3ccccc23)c2nnnn2-c2ccc3c(c2)OCCO3)CC1 (centres undefined)	active: 18.4 µM
S=C(Nc1cccnc1)N1CCN(c2ccccc2Cl)CC1	inconclusive: 29.1 µM [cytotoxic, single point]
COCc1c(C(=O)N2CCN(CCOc3ccccc3)CC2)oc2ccccc12	inconclusive: 14.6 µM [cytotoxic, partial curve, poor fit]
COc1cccc(C(C)(O)c2nc(-c3ccccc3)cs2)c1 (centres undefined)	inconclusive: 16.4 µM [cytotoxic, partial curve]
CN1C=CC=C/C1=C1\SC(=S)N(N)C1=O	inactive
CC(C)C1Oc2cc3oc(=O)ccc3cc2C1=O (centres undefined)	inconclusive: 25.9 µM [rising, single point]
CCOC(=O)C(=CNc1ccc2c(c1)CCN2C(C)=O)C(=O)OCC	inactive
O=C(O)c1ccc(-n2cccc2/C=C2/SC(=O)N(CC(=O)N3CCCC3)C2=O)cc1	inconclusive: 32.6 µM [rising, single point]
